{"source": "patent US12195506B2", "about": "“Immunotherapy with A*01 restricted peptides and combination of peptides against cancers and related methods” (Immatics Biotechnologies GmbH, priority 2018, dated 2025)"}
{"tested_on": "HLA molecules of primary tumors and normal tissue samples", "assay": "Identification and relative quantitation of HLA ligands by LC-MS (peptide presentation on tumor versus normal tissue)", "set-up": "species or system human", "settings": "cancer entities on which the peptide was found presented (HLA ligands, LC-MS); abbreviations as in title of Table 8"}
{"substance": "2 (VDPIGHLY; listed as Homo sapiens) [compound 2]", "Peptide Presentation on cancer entities": "HCC"}
{"substance": "4 (RIEAIRAEY; listed as Homo sapiens) [compound 4]", "Peptide Presentation on cancer entities": "MEL"}
{"substance": "6 (ARDPITFSF; listed as Homo sapiens) [compound 6]", "Peptide Presentation on cancer entities": "HNSCC, NSCLCadeno"}
{"substance": "7 (ASDDVRIEVGLY; listed as Homo sapiens) [compound 7]", "Peptide Presentation on cancer entities": "AML, NSCLCother"}
{"substance": "8 (TSRAANIPGY; listed as Homo sapiens) [compound 8]", "Peptide Presentation on cancer entities": "MEL"}
{"substance": "10 (VSERTGISY; listed as Homo sapiens) [compound 10]", "Peptide Presentation on cancer entities": "MEL"}
{"substance": "11 (ASDHWRGRY; listed as Homo sapiens) [compound 11]", "Peptide Presentation on cancer entities": "PRCA"}
{"substance": "12 (YTDFVGEGLY; listed as Homo sapiens) [compound 12]", "Peptide Presentation on cancer entities": "BRCA, PRCA"}
{"substance": "13 (NTHTGTRPY; listed as Homo sapiens) [compound 13]", "Peptide Presentation on cancer entities": "NSCLCsquam"}
{"substance": "14 (QSEKEPGQQY; listed as Homo sapiens) [compound 14]", "Peptide Presentation on cancer entities": "HCC"}
{"substance": "15 (YLDSSKPAVY; listed as Homo sapiens) [compound 15]", "Peptide Presentation on cancer entities": "BRCA, UEC"}
{"substance": "16 (NSDISIPEY; listed as Homo sapiens) [compound 16]", "Peptide Presentation on cancer entities": "BRCA, GC, NHL, OC, SCLC, UEC"}
{"substance": "17 (ASWAVLCYY; listed as Homo sapiens) [compound 17]", "Peptide Presentation on cancer entities": "NSCLCsquam"}
{"substance": "18 (RSDPVSLRY; listed as Homo sapiens) [compound 18]", "Peptide Presentation on cancer entities": "GBM"}
{"substance": "19 (LTEGHSGNY; listed as Homo sapiens) [compound 19]", "Peptide Presentation on cancer entities": "NHL"}
{"substance": "20 (LSAQHRMLA; listed as Homo sapiens) [compound 20]", "Peptide Presentation on cancer entities": "GBM"}
{"substance": "23 (DTDPLKAAGL; listed as Homo sapiens) [compound 23]", "Peptide Presentation on cancer entities": "GBC, GBM, GC, MEL, NSCLCadeno, NSCLCsquam, OC, OSCAR, UEC"}
{"substance": "24 (NLDHYTNAY; listed as Homo sapiens) [compound 24]", "Peptide Presentation on cancer entities": "UEC"}
{"substance": "25 (AMMQEAQLAY; listed as Homo sapiens) [compound 25]", "Peptide Presentation on cancer entities": "NSCLCadeno, NSCLCother, SCLC, UEC"}
{"substance": "26 (ASDDFRSKY; listed as Homo sapiens) [compound 26]", "Peptide Presentation on cancer entities": "OSCAR"}
{"substance": "29 (TLEDLDNLYNY; listed as Homo sapiens) [compound 29]", "Peptide Presentation on cancer entities": "NSCLCadeno"}
{"substance": "30 (VTTDKPRAY; listed as Homo sapiens) [compound 30]", "Peptide Presentation on cancer entities": "HNSCC"}
{"substance": "31 (VSDHLQAGMLGQY; listed as Homo sapiens) [compound 31]", "Peptide Presentation on cancer entities": "HNSCC, OSCAR"}
{"substance": "32 (GTDKQNSTLRY; listed as Homo sapiens) [compound 32]", "Peptide Presentation on cancer entities": "MEL, NSCLCadeno"}
{"substance": "33 (SMDPVTGYQY; listed as Homo sapiens) [compound 33]", "Peptide Presentation on cancer entities": "MEL"}
{"substance": "34 (SSWSAGENDSY; listed as Homo sapiens) [compound 34]", "Peptide Presentation on cancer entities": "BRCA, CCC, GBC, GBM, GC, HNSCC, MEL, NSCLCsquam, OC, OSCAR, PACA, UEC"}
{"substance": "35 (SWSAGENDSYS; listed as Homo sapiens) [compound 35]", "Peptide Presentation on cancer entities": "BRCA, NSCLCadeno, NSCLCsquam, UEC"}
{"substance": "36 (MTSTEQSLY; listed as Homo sapiens) [compound 36]", "Peptide Presentation on cancer entities": "HCC, MEL"}
{"substance": "37 (MTSTEQSLYY; listed as Homo sapiens) [compound 37]", "Peptide Presentation on cancer entities": "MEL"}
{"substance": "40 (TSDQLGYSY; listed as Homo sapiens) [compound 40]", "Peptide Presentation on cancer entities": "MEL"}
{"substance": "43 (ETEPERHLGSY; listed as Homo sapiens) [compound 43]", "Peptide Presentation on cancer entities": "PRCA"}
{"substance": "45 (NLDPNKIY; listed as Homo sapiens) [compound 45]", "Peptide Presentation on cancer entities": "MEL, OSCAR"}
{"substance": "46 (RSDPGGGGLAYAAY; listed as Homo sapiens) [compound 46]", "Peptide Presentation on cancer entities": "AML, BRCA"}
{"substance": "47 (WSDGVPLLY; listed as Homo sapiens) [compound 47]", "Peptide Presentation on cancer entities": "GBM, MEL"}
{"substance": "50 (ITDEDEDMLSY; listed as Homo sapiens) [compound 50]", "Peptide Presentation on cancer entities": "HCC"}
{"substance": "54 (EVDIHTIHY; listed as Homo sapiens) [compound 54]", "Peptide Presentation on cancer entities": "GBC, HNSCC, OSCAR"}
{"substance": "55 (ATEGDVLNY; listed as Homo sapiens) [compound 55]", "Peptide Presentation on cancer entities": "MEL, NHL, NSCLCsquam"}
{"substance": "56 (VTEYAEEIYQY; listed as Homo sapiens) [compound 56]", "Peptide Presentation on cancer entities": "AML"}
{"substance": "58 (YLENSASWY; listed as Homo sapiens) [compound 58]", "Peptide Presentation on cancer entities": "UEC"}
{"substance": "59 (FTDSQGNDIK; listed as Homo sapiens) [compound 59]", "Peptide Presentation on cancer entities": "MEL"}
{"substance": "60 (MTEKFLFLY; listed as Homo sapiens) [compound 60]", "Peptide Presentation on cancer entities": "HNSCC, OSCAR"}
{"substance": "61 (SSDIVALGGFLY; listed as Homo sapiens) [compound 61]", "Peptide Presentation on cancer entities": "AML, BRCA, NSCLCsquam"}
{"substance": "62 (VSELVTTGHY; listed as Homo sapiens) [compound 62]", "Peptide Presentation on cancer entities": "AML, CRC, GBC, GBM, NSCLCadeno, NSCLCsquam, OC, OSCAR"}
{"substance": "65 (SSDFDPLVY; listed as Homo sapiens) [compound 65]", "Peptide Presentation on cancer entities": "BRCA, GBC, GBM, GC, HCC, MEL, NSCLCadeno, NSCLCsquam, UEC"}
{"substance": "67 (NVDQNQNSY; listed as Homo sapiens) [compound 67]", "Peptide Presentation on cancer entities": "GBM, HNSCC, MEL, NSCLCadeno"}
{"substance": "70 (YTELVEEKY; listed as Homo sapiens) [compound 70]", "Peptide Presentation on cancer entities": "BRCA, CCC, CRC, GC, HCC, HNSCC, MEL, NHL, NSCLCadeno, NSCLCother, NSCLCsquam, OC, OSCAR, PACA, PRCA, RCC, UEC"}
{"substance": "71 (LTDSTTRTTY; listed as Homo sapiens) [compound 71]", "Peptide Presentation on cancer entities": "CRC, GC, NSCLCadeno, NSCLCsquam, PACA"}
{"substance": "72 (VTDSTTKIAY; listed as Homo sapiens) [compound 72]", "Peptide Presentation on cancer entities": "GC, NSCLCsquam, PACA, SCLC"}
{"substance": "74 (EMEQQSQEY; listed as Homo sapiens) [compound 74]", "Peptide Presentation on cancer entities": "HNSCC, OSCAR"}
{"substance": "76 (QTDVERIKDTY; listed as Homo sapiens) [compound 76]", "Peptide Presentation on cancer entities": "CCC, CRC, GBC, GC, HCC, HNSCC, NHL, NSCLCadeno, NSCLCother, NSCLCsquam, OC, OSCAR, PACA, PRCA, UEC"}
{"substance": "77 (FTSDTGLEY; listed as Homo sapiens) [compound 77]", "Peptide Presentation on cancer entities": "AML, NSCLCadeno"}
{"substance": "78 (QLDSAVKNLY; listed as Homo sapiens) [compound 78]", "Peptide Presentation on cancer entities": "BRCA, CRC, GBC, GC, HCC, HNSCC, MEL, NHL, NSCLCadeno, NSCLCsquam, OSCAR, PACA; SCLC, UBC, UEC"}
{"substance": "79 (ASDLEPRELLSY; listed as Homo sapiens) [compound 79]", "Peptide Presentation on cancer entities": "BRCA"}
{"substance": "80 (ELCPLPGTSAY; listed as Homo sapiens) [compound 80]", "Peptide Presentation on cancer entities": "GBC, GBM, GC, HCC, HNSCC"}
{"substance": "81 (YSDLHTPGRY; listed as Homo sapiens) [compound 81]", "Peptide Presentation on cancer entities": "AML, SCLC"}
{"substance": "82 (LTEKSHIRY; listed as Homo sapiens) [compound 82]", "Peptide Presentation on cancer entities": "BRCA, GBM, MEL, NSCLCadeno, NSCLCsquam"}
{"substance": "83 (DTEFHGGLHY; listed as Homo sapiens) [compound 83]", "Peptide Presentation on cancer entities": "BRCA, GC, OSCAR, PACA"}
{"substance": "85 (SSDNYEHWLY; listed as Homo sapiens) [compound 85]", "Peptide Presentation on cancer entities": "BRCA, MEL, NSCLCadeno"}
{"substance": "87 (AFDDIATYF; listed as Homo sapiens) [compound 87]", "Peptide Presentation on cancer entities": "SCLC"}
{"substance": "88 (KEVDPAGHSYI; listed as Homo sapiens) [compound 88]", "Peptide Presentation on cancer entities": "NHL"}
{"substance": "89 (EVYDGREHSAY; listed as Homo sapiens) [compound 89]", "Peptide Presentation on cancer entities": "MEL, OSCAR"}
{"substance": "90 (YEDHFPLLF; listed as Homo sapiens) [compound 90]", "Peptide Presentation on cancer entities": "MEL, OSCAR"}
{"substance": "92 (TTDDTTAMASAS; listed as Homo sapiens) [compound 92]", "Peptide Presentation on cancer entities": "GBC, MEL, NSCLCsquam"}
{"substance": "93 (HLKILSPIY; listed as Homo sapiens) [compound 93]", "Peptide Presentation on cancer entities": "BRCA"}
{"substance": "96 (TATLLIVRY; listed as Homo sapiens) [compound 96]", "Peptide Presentation on cancer entities": "AML"}
{"substance": "98 (NFSDLVFTY; listed as Homo sapiens) [compound 98]", "Peptide Presentation on cancer entities": "BRCA"}
{"substance": "99 (AADSNPSEL; listed as Homo sapiens) [compound 99]", "Peptide Presentation on cancer entities": "PRCA"}
{"substance": "101 (SITDVDFIY; listed as Homo sapiens) [compound 101]", "Peptide Presentation on cancer entities": "UEC"}
{"substance": "102 (STIRGELFF; listed as Homo sapiens) [compound 102]", "Peptide Presentation on cancer entities": "BRCA"}
{"substance": "103 (ITDTLIHLM; listed as Homo sapiens) [compound 103]", "Peptide Presentation on cancer entities": "BRCA"}
{"substance": "104 (ITDTLIHL; listed as Homo sapiens) [compound 104]", "Peptide Presentation on cancer entities": "BRCA"}
{"substance": "107 (TTENSGNYY; listed as Homo sapiens) [compound 107]", "Peptide Presentation on cancer entities": "CLL"}
{"substance": "108 (NSNLKFLEV; listed as Homo sapiens) [compound 108]", "Peptide Presentation on cancer entities": "SCLC"}
{"substance": "109 (ISEDKSISF; listed as Homo sapiens) [compound 109]", "Peptide Presentation on cancer entities": "CRC"}
{"substance": "111 (TPIPFDKILY; listed as Homo sapiens) [compound 111]", "Peptide Presentation on cancer entities": "OSCAR"}
{"substance": "112 (KASSVSAEDGY; listed as Homo sapiens) [compound 112]", "Peptide Presentation on cancer entities": "GBM, UEC"}
{"substance": "114 (AVAAAAGASLY; listed as Homo sapiens) [compound 114]", "Peptide Presentation on cancer entities": "AML, MEL, OSCAR"}
